Data as given in PubChem BioAssay AID504764 (Drosophila RNAi Screening Center, 2011)

Test: 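Genome-wide screen for regulators of Notch-driven gene expression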 (primary screen)
Cells: Drosophila Kc167 cells
Reagents: long dsRNA against Drosophila genes
Duration: about 5 days (4 days dsRNA, then 24 h after transfection)
Conditions: transfection of constitutively active membrane-tethered Notch lacking the extracellular domain, read 24 h later
Measurement: 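Firefly luciferase from an E(spl)m3 reporter with active Notch, plus control-promoter and uninduced reporter wells for normalisation; unnormalised counts, duplicate wells a and b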
Direction: induced reporter light, run 1, well a and induced reporter light, run 1, well b: higher = more light from the Notch target reporter with active Notch; control promoter light, run 1, well a and control promoter light, run 1, well b: higher = more light from the viral control promoter (cell number, transfection, viability); uninduced reporter light, run 1, well a: higher = more light from the Notch target reporter without active Notch
Rule for the call: 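Hit if the duplicate-averaged log2 ratio of induced to control-promoter light gives a plate-wise z beyond ±2, or induced to uninduced beyond ±1.8; weak-control or discordant-duplicate wells dropped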
Meaning of the calls: active = modifier hit (raised or lowered Notch signal); inactive = not a hit
The deposit covers about 22,000 reagents; this is an unselected part of those that have a named target and a result. Of all reagents, 403 (1.9%) are marked active. 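Unnormalised raw counts per well; ratio z-scores behind the hit calls and whether each hit raises or lowers signal are not deposited.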 Names joined by + are all predicted targets of the reagent. Not stated in the record: the amount of reagent.

gene | amplicon | induced reporter light, run 1, well a | induced reporter light, run 1, well b | control promoter light, run 1, well a | control promoter light, run 1, well b | uninduced reporter light, run 1, well a | Outcome
lmgA + lmgB | DRSC03566 | 1.54e5 | 1.83e5 | 1.01e5 | 1.25e5 | 16755 | inactive
CG13856 | DRSC14706 | 1.49e5 | 1.55e5 | 1.72e5 | 1.75e5 | 12925 | inactive
CG2200 | DRSC19840 | 1.18e5 | 1.33e5 | 2.52e5 | 2.72e5 | 8670 | inactive
CG12056 | DRSC17796 | 1.84e5 | 1.73e5 | 2.02e5 | 2.18e5 | 13255 | inactive
CG17806 | DRSC15276 | 2.08e5 | 2.49e5 | 2.51e5 | 3.55e5 | 17850 | inactive
GstT2 | DRSC06244 | 2.32e5 | 1.87e5 | 2.29e5 | 2.47e5 | 14755 | inactive
CG31437 | DRSC13711 | 1.69e5 | 1.81e5 | 1.68e5 | 1.71e5 | 15780 | inactive
CG7530 | DRSC16255 | 1.35e5 | 1.41e5 | 1.17e5 | 1.04e5 | 10960 | active
Klc | DRSC11203 | 1.06e5 | 1.07e5 | 98715 | 43965 | 11400 | inactive
Jon25Bii | DRSC03114 | 2.24e5 | 1.98e5 | 2.01e5 | 2.03e5 | 13455 | inactive
CG14625 | DRSC18633 | 98450 | 94120 | 1.41e5 | 1.71e5 | 7142 | inactive
ninaC | DRSC03579 | 1.80e5 | 1.84e5 | 2.02e5 | 1.82e5 | 13410 | inactive
Fur2 | DRSC19817 | 55905 | 45340 | 55420 | 61160 | 7410 | inactive
ThrRS | DRSC02843 | 1.91e5 | 1.42e5 | 1.52e5 | 1.78e5 | 13780 | inactive
Ir60b | DRSC04217 | 1.90e5 | 1.46e5 | 1.61e5 | 1.69e5 | 12665 | inactive
Treh | DRSC04548 | 1.65e5 | 2.10e5 | 1.76e5 | 1.78e5 | 12790 | inactive
shg | DRSC04714 | 2.19e5 | 1.86e5 | 1.71e5 | 1.99e5 | 16255 | inactive
Cyp4aa1 | DRSC07368 | 87860 | 1.13e5 | 1.54e5 | 1.42e5 | 6265 | inactive
CG9192 | DRSC08639 | 1.06e5 | 1.39e5 | 2.06e5 | 1.43e5 | 5000 | inactive
CG11381 | DRSC17780 | 20565 | 22800 | 30325 | 33200 | 3982 | inactive
PH4alphaNE3 | DRSC16541 | 1.52e5 | 1.95e5 | 2.05e5 | 2.00e5 | 10730 | inactive
CG4951 | DRSC15682 | 44445 | 39940 | 43230 | 51455 | 4255 | inactive
otp | DRSC04050 | 33335 | 29995 | 25800 | 30515 | 2215 | inactive
otp | DRSC04707 | 9460 | 8905 | 5970 | 5240 | 1450 | inactive

As entered above:
CG14625 [DRSC18633], control promoter light, run 1, well b: 1.71e5
Under “uninduced reporter light, run 1, well a”, shg [DRSC04714] is entered as 16255
Value of otp [DRSC04050] in “control promoter light, run 1, well a”: 25800
Value for CG17806 [DRSC15276] under “uninduced reporter light, run 1, well a”: 17850
Under “Outcome”, CG31437 [DRSC13711] has inactive
Under “Outcome”, CG2200 [DRSC19840] has inactive

Next records:
gene | amplicon | induced reporter light, run 1, well a | induced reporter light, run 1, well b | control promoter light, run 1, well a | control promoter light, run 1, well b | uninduced reporter light, run 1, well a | Outcome
Ir60d | DRSC04218 | 1.81e5 | 1.77e5 | 1.66e5 | 1.46e5 | 12145 | inactive
CG13989 | DRSC02321 | 1.75e5 | 1.48e5 | 1.87e5 | 1.39e5 | 10590 | inactive
CG34428 | DRSC10119 | 1.18e5 | 1.50e5 | 1.79e5 | 1.52e5 | 6935 | inactive
CG15888 | DRSC15125 | 2.55e5 | 2.55e5 | 2.37e5 | 2.52e5 | 21065 | inactive
Top2 | DRSC03459 | 14975 | 15130 | 19415 | 13010 | 1890 | inactive
CG31115 | DRSC13692 | 1.84e5 | 1.99e5 | 1.61e5 | 1.71e5 | 17285 | inactive
CG40551 (retired record) | DRSC21229 | 75250 | 64930 | 84410 | 82565 | 5340 | inactive
ninaE | DRSC17014 | 2.00e5 | 1.54e5 | 1.77e5 | 2.06e5 | 12020 | inactive
Als2 | DRSC11806 | 1.22e5 | 1.29e5 | 83925 | 1.18e5 | 10528 | inactive
sw | DRSC20388 | 1.06e5 | 96695 | 84775 | 84680 | 7360 | inactive
Ranbp21 | DRSC19447 | 99435 | 82760 | 70280 | 33580 | 6885 | inactive
Vha68-3 | DRSC02809 | 1.48e5 | 1.73e5 | 1.86e5 | 1.70e5 | 16045 | inactive
U2af38 | DRSC00796 | 65990 | 64435 | 67595 | 58290 | 5300 | inactive
CG6118 | DRSC15968 | 38405 | 32535 | 21270 | 22935 | 9965 | inactive
CG17974 | DRSC04299 | 54650 | 49205 | 48890 | 48690 | 2630 | inactive
ph-p | DRSC18820 | 92225 | 1.09e5 | 1.65e5 | 2.13e5 | 7392 | inactive
Dsk | DRSC12347 | 1.42e5 | 1.24e5 | 95035 | 1.21e5 | 7070 | inactive
CG14342 | DRSC00372 | 1.26e5 | 1.18e5 | 90075 | 54080 | 9095 | inactive
unc-119 | DRSC18846 | 1.51e5 | 1.36e5 | 2.75e5 | 2.45e5 | 12485 | inactive
mia | DRSC12137 | 1.68e5 | 1.70e5 | 1.06e5 | 97870 | 13342 | inactive
ck | DRSC03509 | 2.17e5 | 2.31e5 | 1.85e5 | 1.86e5 | 16360 | inactive
TfIIFalpha | DRSC12608 | 23420 | 22150 | 29370 | 22945 | 1875 | inactive
CG11626 | DRSC14336 | 2.02e5 | 1.92e5 | 2.18e5 | 2.45e5 | 13980 | inactive
Ugt49B2 | DRSC16049 | 1.88e5 | 1.67e5 | 1.86e5 | 2.23e5 | 13115 | inactive
Ing5 | DRSC03188 | 1.80e5 | 1.84e5 | 1.48e5 | 1.72e5 | 19120 | active
CG5758 | DRSC02889 | 39165 | 46275 | 31475 | 38455 | 3705 | inactive
CG5758 | DRSC02890 | 1.25e5 | 1.45e5 | 1.68e5 | 1.88e5 | 12430 | inactive
